In paper PMC12552980 one finds binding data, which are given here for 2 molecules.

Sequences of proteins named here, by UniProt entry; tags and fusion partners are left off.
UniProt P29475: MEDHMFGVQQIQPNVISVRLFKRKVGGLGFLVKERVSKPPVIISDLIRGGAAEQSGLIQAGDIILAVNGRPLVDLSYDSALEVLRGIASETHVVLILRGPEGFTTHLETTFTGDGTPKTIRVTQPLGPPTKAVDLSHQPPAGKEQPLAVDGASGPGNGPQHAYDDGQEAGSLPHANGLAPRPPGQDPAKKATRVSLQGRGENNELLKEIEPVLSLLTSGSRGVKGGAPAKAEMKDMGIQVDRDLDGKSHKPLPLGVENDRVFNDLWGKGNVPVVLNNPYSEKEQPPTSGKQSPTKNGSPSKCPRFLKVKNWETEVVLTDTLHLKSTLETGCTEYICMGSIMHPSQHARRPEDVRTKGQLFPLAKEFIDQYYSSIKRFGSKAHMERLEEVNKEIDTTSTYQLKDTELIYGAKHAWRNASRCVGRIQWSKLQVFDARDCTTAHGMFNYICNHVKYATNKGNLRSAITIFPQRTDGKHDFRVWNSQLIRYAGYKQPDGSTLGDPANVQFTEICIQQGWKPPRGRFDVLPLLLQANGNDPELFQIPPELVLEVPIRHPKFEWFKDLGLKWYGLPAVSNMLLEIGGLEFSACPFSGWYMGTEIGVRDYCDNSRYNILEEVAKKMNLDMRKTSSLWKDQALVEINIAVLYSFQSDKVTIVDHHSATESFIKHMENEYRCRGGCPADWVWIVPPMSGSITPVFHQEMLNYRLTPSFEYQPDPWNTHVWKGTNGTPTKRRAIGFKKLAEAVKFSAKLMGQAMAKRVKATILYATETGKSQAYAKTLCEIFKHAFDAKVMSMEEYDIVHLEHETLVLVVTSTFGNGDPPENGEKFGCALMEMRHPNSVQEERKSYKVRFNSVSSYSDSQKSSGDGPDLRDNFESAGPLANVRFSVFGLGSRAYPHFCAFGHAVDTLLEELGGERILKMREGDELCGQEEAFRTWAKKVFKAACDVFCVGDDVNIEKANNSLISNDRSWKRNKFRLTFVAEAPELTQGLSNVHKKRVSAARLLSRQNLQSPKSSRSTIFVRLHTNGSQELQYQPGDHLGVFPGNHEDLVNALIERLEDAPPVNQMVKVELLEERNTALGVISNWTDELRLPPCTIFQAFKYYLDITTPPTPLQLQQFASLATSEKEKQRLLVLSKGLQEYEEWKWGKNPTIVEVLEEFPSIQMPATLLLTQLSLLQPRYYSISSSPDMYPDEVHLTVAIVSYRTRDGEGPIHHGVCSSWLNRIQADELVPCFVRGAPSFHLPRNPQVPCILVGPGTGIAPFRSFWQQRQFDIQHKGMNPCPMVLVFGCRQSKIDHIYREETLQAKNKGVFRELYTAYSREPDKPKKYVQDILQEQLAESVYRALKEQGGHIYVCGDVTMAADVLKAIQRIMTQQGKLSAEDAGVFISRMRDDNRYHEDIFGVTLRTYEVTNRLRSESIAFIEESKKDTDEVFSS

No constants are given. Whether binding was seen depends on the method and setting. In cells and extracts the contact can be indirect. Some results given as binding are weak or reduced against the parent protein; the word gives no strength. For some assays here: Tags and fused reporters may be left off the sequences shown.

One assay has as its target HA-KRAS (UniProt P01116). In words: co-IP; HEK293T cells co-transfected with FLAG-TCOF1 and HA-KRAS; IP with FLAG or HA antibodies, reciprocal.
For assay [1], the target named is Neuronal nitric oxide synthase (nNOS) (UniProt P29475). In words: co-IP; lysate of Huh6 cells overexpressing nNOS; IP with nNOS antibodies, blot with KRAS and TCOF1 antibodies; IgG as negative control.

B1: FLAG-TCOF1 (protein, UniProt Q13428 1-1488)
chain: MAEARKRRELLPLIYHHLLRAGYVRAAREVKEQSGQKCFLAQPVTLLDIYTHWQQTSELGRKRKAEEDAALQAKKTRVSDPISTSESSEEEEEAEAETAKATPRLASTNSSVLGADLPSSMKEKAKAETEKAGKTGNSMPHPATGKTVANLLSGKSPRKSAEPSANTTLVSETEEEGSVPAFGAAAKPGMVSAGQADSSSEDTSSSSDETDVEGKPSVKPAQVKASSVSTKESPARKAAPAPGKVGDVTPQVKGGALPPAKRAKKPEEESESSEEGSESEEEAPAGTRSQVKASEKILQVRAASAPAKGTPGKGATPAPPGKAGAVASQTKAGKPEEDSESSSEESSDSEEETPAAKALLQAKASGKTSQVGAASAPAKESPRKGAAPAPPGKTGPAVAKAQAGKREEDSQSSSEESDSEEEAPAQAKPSGKAPQVRAASAPAKESPRKGAAPAPPRKTGPAAAQVQVGKQEEDSRSSSEESDSDREALAAMNAAQVKPLGKSPQVKPASTMGMGPLGKGAGPVPPGKVGPATPSAQVGKWEEDSESSSEESSDSSDGEVPTAVAPAQEKSLGNILQAKPTSSPAKGPPQKAGPVAVQVKAEKPMDNSESSEESSDSADSEEAPAAMTAAQAKPALKIPQTKACPKKTNTTASAKVAPVRVGTQAPRKAGTATSPAGSSPAVAGGTQRPAEDSSSSEESDSEEEKTGLAVTVGQAKSVGKGLQVKAASVPVKGSLGQGTAPVLPGKTGPTVTQVKAEKQEDSESSEEESDSEEAAASPAQVKTSVKKTQAKANPAAARAPSAKGTISAPGKVVTAAAQAKQRSPSKVKPPVRNPQNSTVLARGPASVPSVGKAVATAAQAQTGPEEDSGSSEEESDSEEEAETLAQVKPSGKTHQIRAALAPAKESPRKGAAPTPPGKTGPSAAQAGKQDDSGSSSEESDSDGEAPAAVTSAQVIKPPLIFVDPNRSPAGPAATPAQAQAASTPRKARASESTARSSSSESEDEDVIPATQCLTPGIRTNVVTMPTAHPRIAPKASMAGASSSKESSRISDGKKQEGPATQVSKKNPASLPLTQAALKVLAQKASEAQPPVARTQPSSGVDSAVGTLPATSPQSTSVQAKGTNKLRKPKLPEVQQATKAPESSDDSEDSSDSSSGSEEDGEGPQGAKSAHTLGPTPSRTETLVEETAAESSEDDVVAPSQSLLSGYMTPGLTPANSQASKATPKLDSSPSVSSTLAAKDDPDGKQEAKPQQAAGMLSPKTGGKEAASGTTPQKSRKPKKGAGNPQASTLALQSNITQCLLGQPWPLNEAQVQASVVKVLTELLEQERKKVVDTTKESSRKGWESRKRKLSGDQPAARTPRSKKKKKLGAGEGGEASVSPEKTSTTSKGKAKRDKASGDVKEKKGKGSLGSQGAKDEPEEELQKGMGTVEGGDQSNPKSKKEKKKSDKRKKDKEKKEKKKKAKKASTKDSESPSQKKKKKKKKTAEQTV
Regarding B1, in the assay with HA-KRAS, the binding result is “binds”.

B2: treacle ribosome biogenesis factor 1 (TCOF1) (protein, UniProt Q13428 1-1488)
chain: MAEARKRRELLPLIYHHLLRAGYVRAAREVKEQSGQKCFLAQPVTLLDIYTHWQQTSELGRKRKAEEDAALQAKKTRVSDPISTSESSEEEEEAEAETAKATPRLASTNSSVLGADLPSSMKEKAKAETEKAGKTGNSMPHPATGKTVANLLSGKSPRKSAEPSANTTLVSETEEEGSVPAFGAAAKPGMVSAGQADSSSEDTSSSSDETDVEGKPSVKPAQVKASSVSTKESPARKAAPAPGKVGDVTPQVKGGALPPAKRAKKPEEESESSEEGSESEEEAPAGTRSQVKASEKILQVRAASAPAKGTPGKGATPAPPGKAGAVASQTKAGKPEEDSESSSEESSDSEEETPAAKALLQAKASGKTSQVGAASAPAKESPRKGAAPAPPGKTGPAVAKAQAGKREEDSQSSSEESDSEEEAPAQAKPSGKAPQVRAASAPAKESPRKGAAPAPPRKTGPAAAQVQVGKQEEDSRSSSEESDSDREALAAMNAAQVKPLGKSPQVKPASTMGMGPLGKGAGPVPPGKVGPATPSAQVGKWEEDSESSSEESSDSSDGEVPTAVAPAQEKSLGNILQAKPTSSPAKGPPQKAGPVAVQVKAEKPMDNSESSEESSDSADSEEAPAAMTAAQAKPALKIPQTKACPKKTNTTASAKVAPVRVGTQAPRKAGTATSPAGSSPAVAGGTQRPAEDSSSSEESDSEEEKTGLAVTVGQAKSVGKGLQVKAASVPVKGSLGQGTAPVLPGKTGPTVTQVKAEKQEDSESSEEESDSEEAAASPAQVKTSVKKTQAKANPAAARAPSAKGTISAPGKVVTAAAQAKQRSPSKVKPPVRNPQNSTVLARGPASVPSVGKAVATAAQAQTGPEEDSGSSEEESDSEEEAETLAQVKPSGKTHQIRAALAPAKESPRKGAAPTPPGKTGPSAAQAGKQDDSGSSSEESDSDGEAPAAVTSAQVIKPPLIFVDPNRSPAGPAATPAQAQAASTPRKARASESTARSSSSESEDEDVIPATQCLTPGIRTNVVTMPTAHPRIAPKASMAGASSSKESSRISDGKKQEGPATQVSKKNPASLPLTQAALKVLAQKASEAQPPVARTQPSSGVDSAVGTLPATSPQSTSVQAKGTNKLRKPKLPEVQQATKAPESSDDSEDSSDSSSGSEEDGEGPQGAKSAHTLGPTPSRTETLVEETAAESSEDDVVAPSQSLLSGYMTPGLTPANSQASKATPKLDSSPSVSSTLAAKDDPDGKQEAKPQQAAGMLSPKTGGKEAASGTTPQKSRKPKKGAGNPQASTLALQSNITQCLLGQPWPLNEAQVQASVVKVLTELLEQERKKVVDTTKESSRKGWESRKRKLSGDQPAARTPRSKKKKKLGAGEGGEASVSPEKTSTTSKGKAKRDKASGDVKEKKGKGSLGSQGAKDEPEEELQKGMGTVEGGDQSNPKSKKEKKKSDKRKKDKEKKEKKKKAKKASTKDSESPSQKKKKKKKKTAEQTV
Consider B2, for which the binding entry in assay [1] was “no binding”.
